{
  "sequences": {"note": "Protein sequences, listed by entry. Tags and fused reporters are not part of them. Residues count along the entry.", "UniProt P60615, 22-95": "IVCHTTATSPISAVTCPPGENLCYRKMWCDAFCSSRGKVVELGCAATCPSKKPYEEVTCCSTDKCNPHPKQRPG", "UniProt P04756, 21-230": "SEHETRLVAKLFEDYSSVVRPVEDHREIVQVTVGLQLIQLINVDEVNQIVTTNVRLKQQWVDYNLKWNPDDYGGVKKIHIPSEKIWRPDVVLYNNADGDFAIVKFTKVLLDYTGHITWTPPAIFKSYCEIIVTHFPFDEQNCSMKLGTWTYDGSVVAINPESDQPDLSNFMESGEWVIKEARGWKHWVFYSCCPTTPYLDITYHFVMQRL"},
  "source": "paper doi:10.1101/2020.05.29.123851",
  "target": "alpha-bungarotoxin, biotin conjugate (UniProt P60615)",
  "assay": "pull-down",
  "note": "These are yes or no findings as the source states them, for the method shown. Some binding calls cover weakened binding; strength is not graded here.",
  "data": [
    {"substance": "GST-tagged α1 nAChR subunit ectodomain (from UniProt P04756 21-230) (domain or fragment)", "values": [
      {"measurement": "binding", "value": "binds"}
    ]}
  ]
}
